Measured values reported in the supplement of paper PMC10849652.
Some of the results follow.

Protein sequences, listed by entry. Tags and fused reporters are not part of them. Lines headed by an entry give the natural chain unless they say otherwise; changes in a name come on top.
UniProt Q96J02: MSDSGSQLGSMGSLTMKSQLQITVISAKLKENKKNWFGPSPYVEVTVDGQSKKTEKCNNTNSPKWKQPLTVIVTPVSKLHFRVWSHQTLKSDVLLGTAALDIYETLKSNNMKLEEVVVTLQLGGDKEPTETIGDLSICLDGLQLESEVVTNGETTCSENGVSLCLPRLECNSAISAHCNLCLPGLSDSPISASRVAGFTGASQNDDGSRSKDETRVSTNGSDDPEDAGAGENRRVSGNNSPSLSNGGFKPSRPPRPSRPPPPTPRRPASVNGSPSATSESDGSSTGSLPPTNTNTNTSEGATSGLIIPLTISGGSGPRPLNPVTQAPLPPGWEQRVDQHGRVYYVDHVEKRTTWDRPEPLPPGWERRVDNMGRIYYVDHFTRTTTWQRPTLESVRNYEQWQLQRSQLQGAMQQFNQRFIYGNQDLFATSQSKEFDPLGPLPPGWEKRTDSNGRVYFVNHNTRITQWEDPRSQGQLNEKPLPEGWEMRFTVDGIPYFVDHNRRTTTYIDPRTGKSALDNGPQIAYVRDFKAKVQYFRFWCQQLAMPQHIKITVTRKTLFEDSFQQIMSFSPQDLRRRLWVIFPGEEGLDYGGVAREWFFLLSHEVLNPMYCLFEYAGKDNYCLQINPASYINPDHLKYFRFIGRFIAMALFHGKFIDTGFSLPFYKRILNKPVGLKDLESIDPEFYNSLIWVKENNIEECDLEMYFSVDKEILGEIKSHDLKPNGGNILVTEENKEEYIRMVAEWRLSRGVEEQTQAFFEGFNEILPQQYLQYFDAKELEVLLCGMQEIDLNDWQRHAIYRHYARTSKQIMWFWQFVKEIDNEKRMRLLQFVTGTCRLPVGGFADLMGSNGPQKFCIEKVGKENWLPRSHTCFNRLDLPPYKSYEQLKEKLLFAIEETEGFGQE
UniProt O43837: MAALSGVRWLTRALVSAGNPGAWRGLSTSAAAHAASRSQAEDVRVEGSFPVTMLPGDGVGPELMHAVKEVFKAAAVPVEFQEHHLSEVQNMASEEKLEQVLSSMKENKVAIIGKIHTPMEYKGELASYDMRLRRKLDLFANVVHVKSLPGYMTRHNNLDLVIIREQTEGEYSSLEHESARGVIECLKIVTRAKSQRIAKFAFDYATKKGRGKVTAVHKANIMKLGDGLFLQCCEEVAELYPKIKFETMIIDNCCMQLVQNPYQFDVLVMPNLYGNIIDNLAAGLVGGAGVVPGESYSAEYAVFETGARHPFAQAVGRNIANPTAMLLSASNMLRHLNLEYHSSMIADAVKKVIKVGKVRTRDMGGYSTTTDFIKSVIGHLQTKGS
UniProt Q9Y5U9: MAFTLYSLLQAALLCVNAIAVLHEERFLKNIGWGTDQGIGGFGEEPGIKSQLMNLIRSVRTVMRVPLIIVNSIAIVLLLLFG
UniProt Q9H1K1: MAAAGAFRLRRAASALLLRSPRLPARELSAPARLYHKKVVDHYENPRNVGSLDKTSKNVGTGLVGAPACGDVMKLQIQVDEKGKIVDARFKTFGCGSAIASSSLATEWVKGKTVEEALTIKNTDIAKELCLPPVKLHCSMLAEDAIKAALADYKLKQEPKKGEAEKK
UniProt Q9NXR8, whole entry, looked up: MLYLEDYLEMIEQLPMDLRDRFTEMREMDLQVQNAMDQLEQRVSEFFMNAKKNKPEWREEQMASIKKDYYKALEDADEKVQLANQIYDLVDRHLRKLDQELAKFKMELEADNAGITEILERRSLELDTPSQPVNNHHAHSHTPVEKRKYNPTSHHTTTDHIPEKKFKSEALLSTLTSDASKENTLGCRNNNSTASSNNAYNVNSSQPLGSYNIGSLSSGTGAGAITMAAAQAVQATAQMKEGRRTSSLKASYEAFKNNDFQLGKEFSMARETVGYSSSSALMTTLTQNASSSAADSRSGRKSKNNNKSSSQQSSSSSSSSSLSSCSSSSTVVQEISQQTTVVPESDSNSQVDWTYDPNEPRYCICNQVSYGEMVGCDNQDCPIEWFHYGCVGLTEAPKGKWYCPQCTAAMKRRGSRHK
UniProt O75874, whole entry, looked up: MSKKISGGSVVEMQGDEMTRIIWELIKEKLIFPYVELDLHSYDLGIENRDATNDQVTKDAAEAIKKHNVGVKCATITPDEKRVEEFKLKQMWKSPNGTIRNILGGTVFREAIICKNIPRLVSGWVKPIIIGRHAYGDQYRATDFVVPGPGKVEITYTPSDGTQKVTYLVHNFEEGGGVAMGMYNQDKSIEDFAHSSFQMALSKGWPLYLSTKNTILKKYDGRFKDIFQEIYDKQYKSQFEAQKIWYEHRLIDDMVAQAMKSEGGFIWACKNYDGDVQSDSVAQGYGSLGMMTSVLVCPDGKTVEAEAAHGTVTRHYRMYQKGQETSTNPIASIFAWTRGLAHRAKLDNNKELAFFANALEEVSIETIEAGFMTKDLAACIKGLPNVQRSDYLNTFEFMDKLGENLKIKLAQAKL
UniProt Q13572: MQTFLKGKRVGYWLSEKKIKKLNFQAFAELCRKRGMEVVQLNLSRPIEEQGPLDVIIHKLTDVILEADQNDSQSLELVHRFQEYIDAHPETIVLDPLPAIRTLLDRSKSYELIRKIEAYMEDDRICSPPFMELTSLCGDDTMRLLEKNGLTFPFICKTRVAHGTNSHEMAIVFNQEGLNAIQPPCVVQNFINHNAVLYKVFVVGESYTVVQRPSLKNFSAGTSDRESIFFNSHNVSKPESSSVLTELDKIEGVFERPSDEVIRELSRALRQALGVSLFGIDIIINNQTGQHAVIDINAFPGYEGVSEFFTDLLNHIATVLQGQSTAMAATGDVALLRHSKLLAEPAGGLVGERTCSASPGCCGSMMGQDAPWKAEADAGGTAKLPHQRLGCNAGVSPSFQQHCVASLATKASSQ
UniProt Q9BUE6: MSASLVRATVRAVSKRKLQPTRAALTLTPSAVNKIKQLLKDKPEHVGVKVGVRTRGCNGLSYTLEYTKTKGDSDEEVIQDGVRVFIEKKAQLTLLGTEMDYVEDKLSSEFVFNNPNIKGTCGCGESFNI
UniProt Q96A47: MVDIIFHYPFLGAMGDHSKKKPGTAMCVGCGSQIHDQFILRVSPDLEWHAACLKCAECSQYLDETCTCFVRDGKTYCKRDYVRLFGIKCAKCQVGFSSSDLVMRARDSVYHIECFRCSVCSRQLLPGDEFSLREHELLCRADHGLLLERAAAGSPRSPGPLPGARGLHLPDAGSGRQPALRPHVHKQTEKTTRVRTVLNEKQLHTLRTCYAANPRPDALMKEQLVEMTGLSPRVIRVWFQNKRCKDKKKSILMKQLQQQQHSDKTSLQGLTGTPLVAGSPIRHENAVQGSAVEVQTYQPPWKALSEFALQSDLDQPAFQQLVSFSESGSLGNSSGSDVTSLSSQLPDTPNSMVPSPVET
UniProt Q8TB96: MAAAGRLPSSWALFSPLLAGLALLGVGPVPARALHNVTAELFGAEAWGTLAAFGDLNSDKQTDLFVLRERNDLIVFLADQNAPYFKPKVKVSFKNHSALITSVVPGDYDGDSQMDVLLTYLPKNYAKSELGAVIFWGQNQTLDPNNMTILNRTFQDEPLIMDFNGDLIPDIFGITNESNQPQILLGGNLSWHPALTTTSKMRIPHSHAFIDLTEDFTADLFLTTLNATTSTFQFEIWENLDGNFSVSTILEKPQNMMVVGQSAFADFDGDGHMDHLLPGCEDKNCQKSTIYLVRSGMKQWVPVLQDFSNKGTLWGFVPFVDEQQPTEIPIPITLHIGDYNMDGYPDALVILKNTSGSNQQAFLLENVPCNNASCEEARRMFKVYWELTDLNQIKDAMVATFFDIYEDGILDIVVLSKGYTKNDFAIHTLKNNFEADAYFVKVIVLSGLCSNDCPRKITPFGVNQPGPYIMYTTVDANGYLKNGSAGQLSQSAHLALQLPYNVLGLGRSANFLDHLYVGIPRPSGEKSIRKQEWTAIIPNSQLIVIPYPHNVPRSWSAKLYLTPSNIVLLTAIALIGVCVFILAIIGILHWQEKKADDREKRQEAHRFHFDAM
UniProt Q8IY31, whole entry, looked up: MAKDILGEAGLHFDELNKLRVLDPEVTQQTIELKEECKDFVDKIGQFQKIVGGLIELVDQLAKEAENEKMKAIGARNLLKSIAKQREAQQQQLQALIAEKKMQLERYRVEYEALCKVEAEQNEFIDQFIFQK
UniProt Q8N201, whole entry, looked up: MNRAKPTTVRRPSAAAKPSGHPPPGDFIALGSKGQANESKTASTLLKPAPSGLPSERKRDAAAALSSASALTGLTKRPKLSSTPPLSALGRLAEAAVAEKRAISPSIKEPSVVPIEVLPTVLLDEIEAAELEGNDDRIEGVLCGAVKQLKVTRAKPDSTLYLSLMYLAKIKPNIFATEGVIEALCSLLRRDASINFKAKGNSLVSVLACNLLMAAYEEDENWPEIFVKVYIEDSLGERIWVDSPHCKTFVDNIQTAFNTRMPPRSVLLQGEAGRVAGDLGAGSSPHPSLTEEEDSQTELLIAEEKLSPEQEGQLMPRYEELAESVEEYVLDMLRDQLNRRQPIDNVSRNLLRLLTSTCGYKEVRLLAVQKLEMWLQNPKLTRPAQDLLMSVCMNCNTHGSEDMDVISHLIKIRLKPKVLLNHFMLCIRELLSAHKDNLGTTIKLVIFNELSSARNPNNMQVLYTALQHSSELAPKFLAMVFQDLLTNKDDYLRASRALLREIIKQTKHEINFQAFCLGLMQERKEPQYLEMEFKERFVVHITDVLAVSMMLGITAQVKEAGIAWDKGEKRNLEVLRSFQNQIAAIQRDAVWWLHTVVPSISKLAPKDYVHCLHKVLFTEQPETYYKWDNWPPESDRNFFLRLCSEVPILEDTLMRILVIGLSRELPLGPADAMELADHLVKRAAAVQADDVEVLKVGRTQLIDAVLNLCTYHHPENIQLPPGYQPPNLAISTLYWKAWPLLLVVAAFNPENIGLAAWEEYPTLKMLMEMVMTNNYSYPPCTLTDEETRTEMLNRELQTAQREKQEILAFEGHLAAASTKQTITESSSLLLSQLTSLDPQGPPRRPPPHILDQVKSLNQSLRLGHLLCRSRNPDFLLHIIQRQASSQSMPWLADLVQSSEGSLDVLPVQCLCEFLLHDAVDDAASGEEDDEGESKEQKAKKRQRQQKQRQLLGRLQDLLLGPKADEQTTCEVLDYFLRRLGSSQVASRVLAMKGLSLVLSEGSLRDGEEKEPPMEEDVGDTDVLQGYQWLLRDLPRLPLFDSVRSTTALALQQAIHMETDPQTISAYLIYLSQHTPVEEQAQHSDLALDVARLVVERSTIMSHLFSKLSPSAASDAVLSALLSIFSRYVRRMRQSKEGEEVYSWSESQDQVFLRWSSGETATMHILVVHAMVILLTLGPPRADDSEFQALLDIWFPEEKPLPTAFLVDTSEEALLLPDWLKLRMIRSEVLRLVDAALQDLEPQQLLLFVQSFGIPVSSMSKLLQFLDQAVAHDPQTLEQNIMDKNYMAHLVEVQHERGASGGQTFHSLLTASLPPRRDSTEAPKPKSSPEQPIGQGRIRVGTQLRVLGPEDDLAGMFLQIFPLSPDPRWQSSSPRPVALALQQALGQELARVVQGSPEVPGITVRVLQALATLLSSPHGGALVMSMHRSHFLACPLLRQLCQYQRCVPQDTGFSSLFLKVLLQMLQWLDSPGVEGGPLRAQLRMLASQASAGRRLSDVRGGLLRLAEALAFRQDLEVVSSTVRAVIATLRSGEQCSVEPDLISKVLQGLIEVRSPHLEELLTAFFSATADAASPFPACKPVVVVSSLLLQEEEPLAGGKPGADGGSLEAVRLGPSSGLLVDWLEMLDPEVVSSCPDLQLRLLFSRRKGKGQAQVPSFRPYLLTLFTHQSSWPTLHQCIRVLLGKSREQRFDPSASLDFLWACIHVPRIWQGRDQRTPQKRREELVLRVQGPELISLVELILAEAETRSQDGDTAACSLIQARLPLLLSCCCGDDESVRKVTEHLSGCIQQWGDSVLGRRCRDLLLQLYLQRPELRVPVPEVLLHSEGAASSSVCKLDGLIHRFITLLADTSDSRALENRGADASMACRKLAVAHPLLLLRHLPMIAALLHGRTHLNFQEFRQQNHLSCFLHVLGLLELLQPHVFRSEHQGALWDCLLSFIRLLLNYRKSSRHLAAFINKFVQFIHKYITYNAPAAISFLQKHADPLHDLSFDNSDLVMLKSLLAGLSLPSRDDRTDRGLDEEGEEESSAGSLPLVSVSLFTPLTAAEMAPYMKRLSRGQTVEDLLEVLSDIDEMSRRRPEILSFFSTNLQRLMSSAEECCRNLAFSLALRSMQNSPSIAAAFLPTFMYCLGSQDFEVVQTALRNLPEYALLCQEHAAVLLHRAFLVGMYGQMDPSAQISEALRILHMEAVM
UniProt Q70UQ0: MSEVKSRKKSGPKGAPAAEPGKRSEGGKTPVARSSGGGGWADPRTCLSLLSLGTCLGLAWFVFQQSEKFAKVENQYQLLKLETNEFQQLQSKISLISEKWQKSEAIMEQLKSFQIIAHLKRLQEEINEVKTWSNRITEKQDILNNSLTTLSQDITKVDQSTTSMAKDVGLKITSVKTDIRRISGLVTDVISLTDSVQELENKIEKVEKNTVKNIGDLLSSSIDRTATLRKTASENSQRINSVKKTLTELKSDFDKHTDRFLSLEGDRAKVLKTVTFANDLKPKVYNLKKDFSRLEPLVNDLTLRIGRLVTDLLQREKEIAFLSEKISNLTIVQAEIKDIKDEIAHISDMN

Compound: c1cn2cc(-c3ccc4cn[nH]c4c3)nc(Nc3ccc(N4CCOCC4)cc3)c2n1 [entospletinib]
Test: log2 fold change, soluble protein after heating vs DMSO (PISA); higher = thermal stabilisation; K562 cells, 10 uM, 30 min; active = over 0.2 and 3.5 SD of the protein, either way, in both replicates (recomputed)
Outline: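 Soluble protein was quantified by TMTpro 16plex LC-MS/MS after channel sums were equalised. It was obtained as the supernatant after 21,000xg for 90 min from pooled aliquots of K562 cells (2×10^6 cells/mL, 10 μM compound, 30 min) heated for 3 min across 48°C-58°C and extracted in PBS with 0.5% NP-40 at 4°C. Thermal stability values are relative to control samples and come from duplicates. They are given as log2 fold changes.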

log2 fold change, inactive:
ITCH (UniProt Q96J02) 0
IDH3B (UniProt O43837) -0.014
IER3IP1 (UniProt Q9Y5U9) -0.049
INIP (UniProt Q9NRY2) -0.058
IMP3 (UniProt Q9NV31) -0.193
ISCU (UniProt Q9H1K1) -0.014
ITGB1 (UniProt P05556) -0.02
ING3 (UniProt Q9NXR8) 0.032
IMPA1 isoform 3 (UniProt P29218) 0.01
IGLL5 (UniProt B9A064) 0.006
IDH3G (UniProt P51553) -0.044
ITPA (UniProt Q9BY32) 0.063
IGLC3 (UniProt P0DOY3) -0.364
IDH1 (UniProt O75874) -0.009
IGF2BP1 (UniProt Q9NZI8) 0.26
IMPAD1 (UniProt Q9NX62) -0.007
ITPK1 (UniProt Q13572) -0.039
IQGAP2 (UniProt Q13576) 0.058
ITIH3 (UniProt Q06033) 0.135
ISCA1 isoform 2 (UniProt Q9BUE6) 0.016
IMPDH2 (UniProt P12268) -0.039
INTS4 (UniProt Q96HW7) 0.009
ISL2 (UniProt Q96A47) 0.152
ITFG1 (UniProt Q8TB96) -0.29
IFT20 isoform 2 (UniProt Q8IY31) 0.048
INTS1 (UniProt Q8N201) 0.186
ITPKA (UniProt P23677) 0.045
IKBIP (UniProt Q70UQ0) -0.005

2 entries drawn at random from the list so far:
log2 fold change, inactive:
IGF2BP1 (UniProt Q9NZI8) 0.26
ISL2 (UniProt Q96A47) 0.152
